Differences between knockout arms are mostly noise.
System: HCC-38
Test: relative cell number vs DMSO control (72 h) (% of DMSO); higher = less growth inhibition (more cells)
Protocol: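 QMAP-Seq: a pool of 5 breast cancer cell lines (ZR-75-1, SKBR3, HCC-38, MDA-MB-231, BT-20), each carrying 12 doxycycline-inducible Cas9 sgRNA perturbations (11 knockouts plus non-targeting sgNT), was treated with compounds for 72 h at four 10-fold doses (10 nM-10 uM or 1 nM-1 uM range). Barcodes were amplified and sequenced, and cell number was interpolated from 293T spike-in standard curves. The result is expressed as % of the median of DMSO wells. Two biological replicates.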

COc1cc(OC)c(/C=C/S(=O)(=O)Cc2ccc(OC)c(NCC(=O)O)c2)c(OC)c1 [Rigosertib]
Conditions	relative cell number
sgRNA knockout: sgATF3, 10 nM	90
sgRNA knockout: sgATF3, 100 nM	41.2
sgRNA knockout: sgATF3, 1000 nM	27
sgRNA knockout: sgATF3, 10000 nM	24.053
sgRNA knockout: sgATF4, 10 nM	99
sgRNA knockout: sgATF4, 100 nM	46.4
sgRNA knockout: sgATF4, 1000 nM	23.4
sgRNA knockout: sgATF4, 10000 nM	20.3
sgRNA knockout: sgATF6, 10 nM	88.28
sgRNA knockout: sgATF6, 100 nM	46.9
sgRNA knockout: sgATF6, 1000 nM	25.8
sgRNA knockout: sgATF6, 10000 nM	21.7
sgRNA knockout: sgATG7, 10 nM	88.01
sgRNA knockout: sgATG7, 100 nM	35.8
sgRNA knockout: sgATG7, 1000 nM	28.3
sgRNA knockout: sgATG7, 10000 nM	24.6
sgRNA knockout: sgERN1, 10 nM	84.7
sgRNA knockout: sgERN1, 100 nM	41.9
sgRNA knockout: sgERN1, 1000 nM	26.5
sgRNA knockout: sgERN1, 10000 nM	26.6
sgRNA knockout: sgHSF1, 10 nM	101
sgRNA knockout: sgHSF1, 100 nM	38
sgRNA knockout: sgHSF1, 1000 nM	23.1
sgRNA knockout: sgHSF1, 10000 nM	37.2
sgRNA knockout: sgHSF2, 10 nM	95.3
sgRNA knockout: sgHSF2, 100 nM	40.7
sgRNA knockout: sgHSF2, 1000 nM	24.3
sgRNA knockout: sgHSF2, 10000 nM	25.8
sgRNA knockout: sgKEAP1, 10 nM	85.3
sgRNA knockout: sgKEAP1, 100 nM	32.2
sgRNA knockout: sgKEAP1, 1000 nM	29
sgRNA knockout: sgKEAP1, 10000 nM	38.5
sgRNA knockout: sgNFE2L2, 10 nM	96.2
sgRNA knockout: sgNFE2L2, 100 nM	47
sgRNA knockout: sgNFE2L2, 1000 nM	22.6
sgRNA knockout: sgNFE2L2, 10000 nM	21.4
sgRNA knockout: sgSLC35F2, 10 nM	89.1
sgRNA knockout: sgSLC35F2, 100 nM	42.8
sgRNA knockout: sgSLC35F2, 1000 nM	27.5
sgRNA knockout: sgSLC35F2, 10000 nM	24
sgRNA knockout: sgXBP1, 10 nM	88.6
sgRNA knockout: sgXBP1, 100 nM	42.7
sgRNA knockout: sgXBP1, 1000 nM	28.1
sgRNA knockout: sgXBP1, 10000 nM	25.2

Cc1ccc(Nc2nccc(N(C)c3ccc4c(C)n(C)nc4c3)n2)cc1S(N)(=O)=O [Pazopanib]
Conditions	relative cell number
sgRNA knockout: sgATF3, 10 nM	99.9
sgRNA knockout: sgATF3, 100 nM	90.5
sgRNA knockout: sgATF3, 1000 nM	88.1
sgRNA knockout: sgATF3, 10000 nM	60.3
sgRNA knockout: sgATF4, 10 nM	97.8
sgRNA knockout: sgATF4, 100 nM	95.9
sgRNA knockout: sgATF4, 1000 nM	97
sgRNA knockout: sgATF4, 10000 nM	61.5
sgRNA knockout: sgATF6, 10 nM	84.9
sgRNA knockout: sgATF6, 100 nM	91.6
sgRNA knockout: sgATF6, 1000 nM	97.1
sgRNA knockout: sgATF6, 10000 nM	57.5
sgRNA knockout: sgATG7, 10 nM	90.5
sgRNA knockout: sgATG7, 100 nM	87.1
sgRNA knockout: sgATG7, 1000 nM	86.6
sgRNA knockout: sgATG7, 10000 nM	56.1
sgRNA knockout: sgERN1, 10 nM	97.9
sgRNA knockout: sgERN1, 100 nM	89.8
sgRNA knockout: sgERN1, 1000 nM	92.361
sgRNA knockout: sgERN1, 10000 nM	61.62
sgRNA knockout: sgHSF1, 10 nM	92.7
sgRNA knockout: sgHSF1, 100 nM	78.4
sgRNA knockout: sgHSF1, 1000 nM	90.1
sgRNA knockout: sgHSF1, 10000 nM	53.3
sgRNA knockout: sgHSF2, 10 nM	96.6
sgRNA knockout: sgHSF2, 100 nM	88.4
sgRNA knockout: sgHSF2, 1000 nM	92.9
sgRNA knockout: sgHSF2, 10000 nM	61.4
sgRNA knockout: sgKEAP1, 10 nM	90.3
sgRNA knockout: sgKEAP1, 100 nM	94.3
sgRNA knockout: sgKEAP1, 1000 nM	75.9
sgRNA knockout: sgKEAP1, 10000 nM	52.88
sgRNA knockout: sgNFE2L2, 10 nM	87.8
sgRNA knockout: sgNFE2L2, 100 nM	98
sgRNA knockout: sgNFE2L2, 1000 nM	102
sgRNA knockout: sgNFE2L2, 10000 nM	60.5
sgRNA knockout: sgSLC35F2, 10 nM	94.4
sgRNA knockout: sgSLC35F2, 100 nM	86.5
sgRNA knockout: sgSLC35F2, 1000 nM	91.6
sgRNA knockout: sgSLC35F2, 10000 nM	62.7
sgRNA knockout: sgXBP1, 10 nM	87.6
sgRNA knockout: sgXBP1, 100 nM	97.7
sgRNA knockout: sgXBP1, 1000 nM	92.8
sgRNA knockout: sgXBP1, 10000 nM	61

CC[C@]1(O)C[C@H]2CN(CCc3c([nH]c4ccccc34)[C@@](C(=O)OC)(c3cc4c(cc3OC)N(C=O)[C@H]3[C@@](O)(C(=O)OC)[C@H](OC(C)=O)[C@]5(CC)C=CCN6CC[C@]43[C@@H]65)C2)C1 [Vincristine]
Conditions	relative cell number
sgRNA knockout: sgATF3, 10 nM	22.5
sgRNA knockout: sgATF3, 100 nM	19.5
sgRNA knockout: sgATF3, 1000 nM	22.6
sgRNA knockout: sgATF3, 10000 nM	21.9
sgRNA knockout: sgATF4, 10 nM	18.1
sgRNA knockout: sgATF4, 100 nM	19.9
sgRNA knockout: sgATF4, 1000 nM	20.7
sgRNA knockout: sgATF4, 10000 nM	22.9
sgRNA knockout: sgATF6, 10 nM	20.04
sgRNA knockout: sgATF6, 100 nM	22.4
sgRNA knockout: sgATF6, 1000 nM	16.6
sgRNA knockout: sgATF6, 10000 nM	21.4
sgRNA knockout: sgATG7, 10 nM	22.9
sgRNA knockout: sgATG7, 100 nM	24.3
sgRNA knockout: sgATG7, 1000 nM	23.2
sgRNA knockout: sgATG7, 10000 nM	22.6
sgRNA knockout: sgERN1, 10 nM	24.9
sgRNA knockout: sgERN1, 100 nM	23.3
sgRNA knockout: sgERN1, 1000 nM	23.38
sgRNA knockout: sgERN1, 10000 nM	19.7
sgRNA knockout: sgHSF1, 10 nM	25.9
sgRNA knockout: sgHSF1, 100 nM	26
sgRNA knockout: sgHSF1, 1000 nM	25.6
sgRNA knockout: sgHSF1, 10000 nM	34.1
sgRNA knockout: sgHSF2, 10 nM	20.6
sgRNA knockout: sgHSF2, 100 nM	23.5
sgRNA knockout: sgHSF2, 1000 nM	26.3
sgRNA knockout: sgHSF2, 10000 nM	24.9
sgRNA knockout: sgKEAP1, 10 nM	24.8
sgRNA knockout: sgKEAP1, 100 nM	23.1
sgRNA knockout: sgKEAP1, 1000 nM	29.8
sgRNA knockout: sgKEAP1, 10000 nM	24.09
sgRNA knockout: sgNFE2L2, 10 nM	19.8
sgRNA knockout: sgNFE2L2, 100 nM	17.5
sgRNA knockout: sgNFE2L2, 1000 nM	17.2
sgRNA knockout: sgNFE2L2, 10000 nM	23.2
sgRNA knockout: sgSLC35F2, 10 nM	26.2
sgRNA knockout: sgSLC35F2, 100 nM	19.55
sgRNA knockout: sgSLC35F2, 1000 nM	20.1
sgRNA knockout: sgSLC35F2, 10000 nM	21.4
sgRNA knockout: sgXBP1, 10 nM	19.33
sgRNA knockout: sgXBP1, 100 nM	25
sgRNA knockout: sgXBP1, 1000 nM	26
sgRNA knockout: sgXBP1, 10000 nM	26.9

Source: the supplement of paper PMC7661543
